# The list shows a part of the results.
# B1: AT5G17240(42) (Arabidopsis thaliana), Q6NQJ8 (protein)
# chain: MDLEHQTMETFLRWAAEIGISDSIDSSRFRDSCLGHSLSVSDFPDAGGRGLGAARELKKGELVLKVPRKALMTTESIIAKDLKLSDAVNLHNSLSSTQILSVCLLYEMSKEKKSFWYPYLFHIPRDYDLLATFGNFEKQALQVEDAVWATEKATAKCQSEWKEAGSLMKELELKPKFRSFQAWLWASATISSRTLHVPWDSAGCLCPVGDLFNYDAPGDYSNTPQGPESANNVEEAGLVVETHSERLTDGGFEEDVNAYCLYARRNYQLGEQVLLCYGTYTNLELLEHYGFMLEENSNDKVFIPLETSLFSLASSWPKDSLYIHQDGKLSFALISTLRLWLIPQSQRDKSVMRLVYAGSQISVKNEILVMKWMSEKCGSVLRDLPTSVTEDTVLLHNIDKLQDPELRLEQKETEAFGSEVRAFLDANCLWDVTVLSGKPIEFSRKTSRMLSKWRWSVQWRLSYKRTLADCISYCNEKMNNLLGTQDRLRDL
# Key:
# Assay in all cases: glycan array binding signal (z-score within array); higher = stronger binding
# Conditions in all cases: glycan notation: IUPAC condensed, linker removed
# [1] = biological target: Gal(b1-4)GlcNAc(b1-2)[Gal(b1-4)GlcNAc(b1-6)]Man(a1-6)[Gal(b1-4)GlcNAc(b1-2)Man(a1-3)]Man(b1-4)GlcNAc(b1-4)[Fuc(a1-6)]GlcNAc
# Method in brief: (§1)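 From the Consortium for Functional Glycomics database, 3228 arrays were curated, keeping only those whose protein sequence was available. Binding is given as a within-array Z-score averaged across arrays sharing a protein sequence and across linkers. Negative Z-scores can be read as non-binding.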
# [2] = biological target: Gal(b1-4)GlcNAc(b1-2)[Gal(b1-4)GlcNAc(b1-6)]Man(a1-6)[GlcNAc(b1-4)][Gal(b1-4)GlcNAc(b1-2)Man(a1-3)]Man(b1-4)GlcNAc(b1-4)GlcNAc
# Method in brief: as §1
# [3] = biological target: Gal(b1-4)GlcNAc(b1-2)[Gal(b1-4)GlcNAc(b1-6)]Man(a1-6)[GlcNAc(b1-4)][Gal(b1-4)GlcNAc(b1-2)[Gal(b1-4)GlcNAc(b1-4)]Man(a1-3)]Man(b1-4)GlcNAc(b1-4)[Fuc(a1-6)]GlcNAc
# Method in brief: as §1
# [4] = biological target: Gal(b1-4)GlcNAc(b1-3)Gal(b1-3)GalNAc
# Method in brief: as §1
# [5] = biological target: Gal(b1-4)GlcNAc(b1-3)Gal(b1-3)GlcNAc
# Method in brief: as §1
# [6] = biological target: Gal(b1-4)GlcNAc(b1-3)Gal(b1-4)Glc
# Method in brief: as §1
# [7] = biological target: Gal(b1-4)GlcNAc(b1-3)Gal(b1-4)GlcNAc
# Method in brief: as §1
# [8] = biological target: Gal(b1-4)GlcNAc(b1-3)Gal(b1-4)GlcNAc(b1-2)Man(a1-3)[Gal(b1-4)GlcNAc(b1-3)Gal(b1-4)GlcNAc(b1-2)Man(a1-6)]Man(b1-4)GlcNAc(b1-4)GlcNAc
# Method in brief: as §1
# [9] = biological target: Gal(b1-4)GlcNAc(b1-3)Gal(b1-4)GlcNAc(b1-2)Man(a1-3)[Gal(b1-4)GlcNAc(b1-3)Gal(b1-4)GlcNAc(b1-2)Man(a1-6)]Man(b1-4)GlcNAc(b1-4)[Fuc(a1-6)]GlcNAc
# Method in brief: as §1
# [10] = biological target: Gal(b1-4)GlcNAc(b1-3)Gal(b1-4)GlcNAc(b1-2)[Gal(b1-4)GlcNAc(b1-3)Gal(b1-4)GlcNAc(b1-6)]Man(a1-6)[Gal(b1-4)GlcNAc(b1-3)Gal(b1-4)GlcNAc(b1-2)Man(a1-3)]Man(b1-4)GlcNAc(b1-4)GlcNAc
# Method in brief: as §1
# [11] = biological target: Gal(b1-4)GlcNAc(b1-3)Gal(b1-4)GlcNAc(b1-2)[Gal(b1-4)GlcNAc(b1-3)Gal(b1-4)GlcNAc(b1-6)]Man(a1-6)[Gal(b1-4)GlcNAc(b1-3)Gal(b1-4)GlcNAc(b1-2)Man(a1-3)]Man(b1-4)GlcNAc(b1-4)[Fuc(a1-6)]GlcNAc
# Method in brief: as §1
# [12] = biological target: Gal(b1-4)GlcNAc(b1-3)Gal(b1-4)GlcNAc(b1-3)Gal(b1-4)GlcNAc
# Method in brief: as §1
# [13] = biological target: Gal(b1-4)GlcNAc(b1-3)Gal(b1-4)GlcNAc(b1-3)Gal(b1-4)GlcNAc(b1-2)Man(a1-3)[Gal(b1-4)GlcNAc(b1-3)Gal(b1-4)GlcNAc(b1-3)Gal(b1-4)GlcNAc(b1-2)Man(a1-6)]Man(b1-4)GlcNAc(b1-4)GlcNAc
# Method in brief: as §1
# [14] = biological target: Gal(b1-4)GlcNAc(b1-3)Gal(b1-4)GlcNAc(b1-3)Gal(b1-4)GlcNAc(b1-2)Man(a1-3)[Gal(b1-4)GlcNAc(b1-3)Gal(b1-4)GlcNAc(b1-3)Gal(b1-4)GlcNAc(b1-2)Man(a1-6)]Man(b1-4)GlcNAc(b1-4)[Fuc(a1-6)]GlcNAc
# Method in brief: as §1
# [15] = biological target: Gal(b1-4)GlcNAc(b1-3)Gal(b1-4)GlcNAc(b1-3)Gal(b1-4)GlcNAc(b1-2)[Gal(b1-4)GlcNAc(b1-3)Gal(b1-4)GlcNAc(b1-3)Gal(b1-4)GlcNAc(b1-6)]Man(a1-6)[Gal(b1-4)GlcNAc(b1-3)Gal(b1-4)GlcNAc(b1-3)Gal(b1-4)GlcNAc(b1-2)Man(a1-3)]Man(b1-4)GlcNAc(b1-4)[Fuc(a1-6)]GlcNAc
# Method in brief: as §1
# [16] = biological target: Gal(b1-4)GlcNAc(b1-3)Gal(b1-4)GlcNAc(b1-3)Gal(b1-4)GlcNAc(b1-3)Gal(b1-4)GlcNAc(b1-2)Man(a1-3)[Gal(b1-4)GlcNAc(b1-3)Gal(b1-4)GlcNAc(b1-3)Gal(b1-4)GlcNAc(b1-3)Gal(b1-4)GlcNAc(b1-2)Man(a1-6)]Man(b1-4)GlcNAc(b1-4)GlcNAc
# Method in brief: as §1
# [17] = biological target: Gal(b1-4)GlcNAc(b1-3)Gal(b1-4)GlcNAc(b1-3)Gal(b1-4)GlcNAc(b1-3)Gal(b1-4)GlcNAc(b1-2)Man(a1-3)[Gal(b1-4)GlcNAc(b1-3)Gal(b1-4)GlcNAc(b1-3)Gal(b1-4)GlcNAc(b1-3)Gal(b1-4)GlcNAc(b1-2)Man(a1-6)]Man(b1-4)GlcNAc(b1-4)[Fuc(a1-6)]GlcNAc
# Method in brief: as §1
# [18] = biological target: Gal(b1-4)GlcNAc(b1-3)Gal(b1-4)GlcNAc(b1-3)Gal(b1-4)GlcNAc(b1-3)Gal(b1-4)GlcNAc(b1-2)[Gal(b1-4)GlcNAc(b1-3)Gal(b1-4)GlcNAc(b1-3)Gal(b1-4)GlcNAc(b1-3)Gal(b1-4)GlcNAc(b1-6)]Man(a1-6)[Gal(b1-4)GlcNAc(b1-3)Gal(b1-4)GlcNAc(b1-3)Gal(b1-4)GlcNAc(b1-3)Gal(b1-4)GlcNAc(b1-2)Man(a1-3)]Man(b1-4)GlcNAc(b1-4)[Fuc(a1-6)]GlcNAc
# Method in brief: as §1
# [19] = biological target: Gal(b1-4)GlcNAc(b1-3)Gal(b1-4)GlcNAc(b1-3)Gal(b1-4)GlcNAc(b1-3)Gal(b1-4)GlcNAc(b1-3)Gal(b1-4)GlcNAc(b1-2)Man(a1-3)[Gal(b1-4)GlcNAc(b1-3)Gal(b1-4)GlcNAc(b1-3)Gal(b1-4)GlcNAc(b1-3)Gal(b1-4)GlcNAc(b1-3)Gal(b1-4)GlcNAc(b1-2)Man(a1-6)]Man(b1-4)GlcNAc(b1-4)GlcNAc
# Method in brief: as §1
binder,measurement,setting,value
B1,glycan array binding signal (z-score),[1],0.42
same,glycan array binding signal (z-score),[2],-0.508
same,glycan array binding signal (z-score),[3],-0.829
same,glycan array binding signal (z-score),[4],0.052
same,glycan array binding signal (z-score),[5],-0.314
same,glycan array binding signal (z-score),[6],-0.089
same,glycan array binding signal (z-score),[7],-0.153
same,glycan array binding signal (z-score),[8],0.515
same,glycan array binding signal (z-score),[9],-0.27
same,glycan array binding signal (z-score),[10],0.954
same,glycan array binding signal (z-score),[11],-0.098
same,glycan array binding signal (z-score),[12],-0.161
same,glycan array binding signal (z-score),[13],0.514
same,glycan array binding signal (z-score),[14],-0.845
same,glycan array binding signal (z-score),[15],-0.248
same,glycan array binding signal (z-score),[16],0.658
same,glycan array binding signal (z-score),[17],0.497
same,glycan array binding signal (z-score),[18],-0.087
same,glycan array binding signal (z-score),[19],0.203

# Reprinted at random: 2 records from the list.
binder,measurement,setting,value
B1,glycan array binding signal (z-score),[1],0.42
same,glycan array binding signal (z-score),[12],-0.161

# Source: the supplement of paper PMC8728848
